Assay [1] concerns the target T1, Flag-tagged full-length stable XErp1 (Flag-XErp1^s WT) (Xenopus laevis) (UniProt Q8AXF4).
T1 sequence: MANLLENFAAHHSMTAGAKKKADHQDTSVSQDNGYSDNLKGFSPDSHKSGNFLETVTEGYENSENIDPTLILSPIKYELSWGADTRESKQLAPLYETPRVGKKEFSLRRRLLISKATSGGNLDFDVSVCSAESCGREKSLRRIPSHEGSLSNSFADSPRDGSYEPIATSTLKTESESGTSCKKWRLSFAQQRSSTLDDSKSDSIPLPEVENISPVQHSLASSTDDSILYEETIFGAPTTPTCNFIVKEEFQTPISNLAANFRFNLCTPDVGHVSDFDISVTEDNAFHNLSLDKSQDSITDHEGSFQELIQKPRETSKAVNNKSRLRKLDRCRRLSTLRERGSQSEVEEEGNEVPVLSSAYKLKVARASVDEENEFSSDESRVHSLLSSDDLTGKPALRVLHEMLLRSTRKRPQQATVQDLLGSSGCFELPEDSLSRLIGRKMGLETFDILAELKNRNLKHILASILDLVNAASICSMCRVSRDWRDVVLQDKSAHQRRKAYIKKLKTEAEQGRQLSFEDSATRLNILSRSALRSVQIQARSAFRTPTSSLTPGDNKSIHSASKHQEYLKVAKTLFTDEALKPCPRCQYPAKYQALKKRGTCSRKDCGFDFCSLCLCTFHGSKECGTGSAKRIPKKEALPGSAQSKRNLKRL
Nature of the assay: condition: only with pocket mutant cyclin B3 in the extract in place of cyclin B3^WT; co-IP; as a3, but the extract held IVT Myc-cyclin B3^PM (pocket mutant) in place of Myc-cyclin B3^WT.

Amino acid sequences for entries named in this document (tags omitted).
UniProt P70032: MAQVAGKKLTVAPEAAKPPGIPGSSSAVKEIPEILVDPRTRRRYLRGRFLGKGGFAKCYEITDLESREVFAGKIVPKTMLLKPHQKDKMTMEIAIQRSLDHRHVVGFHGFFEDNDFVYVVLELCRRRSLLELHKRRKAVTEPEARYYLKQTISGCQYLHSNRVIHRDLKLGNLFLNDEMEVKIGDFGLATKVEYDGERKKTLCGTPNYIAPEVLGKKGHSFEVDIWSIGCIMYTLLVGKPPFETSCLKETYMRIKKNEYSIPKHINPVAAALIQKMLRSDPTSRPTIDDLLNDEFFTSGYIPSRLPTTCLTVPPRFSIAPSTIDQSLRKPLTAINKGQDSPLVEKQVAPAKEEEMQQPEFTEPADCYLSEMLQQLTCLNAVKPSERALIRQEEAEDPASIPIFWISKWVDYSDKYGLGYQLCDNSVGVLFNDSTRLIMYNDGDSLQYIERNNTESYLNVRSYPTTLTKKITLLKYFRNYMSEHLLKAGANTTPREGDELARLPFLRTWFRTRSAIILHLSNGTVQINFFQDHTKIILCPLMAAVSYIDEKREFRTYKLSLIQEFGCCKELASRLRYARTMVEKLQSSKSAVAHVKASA

For assay [2], the target named is T2, Flag-tagged full-length stable XErp1 T97A (Flag-XErp1^s T97A) (Xenopus laevis) (UniProt Q8AXF4).
T2 sequence: T1 sequence with T97A
The assay can be described thus: co-IP; α-Flag IP of IVT Flag-XErp1^s variants from CSF extract with IVT Myc-cyclin B3^WT, Myc-XErp1^CT and MG262; extract diluted 1:4 with IP buffer (20 mM Tris-HCl pH 7.5, 100 mM NaCl, 10 mM EDTA); 30 min at RT; blot for endogenous Plk1.

The target in assay [3] is T3, Flag-tagged full-length stable XErp1 T170A (Flag-XErp1^s T170A) (Xenopus laevis) (UniProt Q8AXF4).
T3 sequence: T1 sequence with T170A
The assay is described as above.

The target in assay [4] is T1, Flag-tagged full-length stable XErp1 (Flag-XErp1^s WT) (Xenopus laevis). The description is as above.
In assay [5] the target is T4, XErp1 pT97 peptide (aa 90-104, phosphorylated at T97) (Xenopus laevis).
T4 sequence (peptide, phosphothreonine at T97): CQLAPLYETPRVGKKE
Nature of the assay: pull-down; XErp1 aa 90–104 peptides coupled to SulfoLink beads, incubated 30 min at 4 °C with CSF extract (MG262, Myc-XErp1^CT IVT) that expressed Flag-cyclins from mRNA, diluted 1:5 in IPB (20 mM Tris-HCl pH 7.5, 100 mM NaCl, 10 mM EDTA); Western blot of beads; only the target purified.

Positions count from the first letter of the chain named. These are yes or no findings as the source states them, for the method shown. In cells and extracts the contact can be indirect. Some entries that bind do so weakly or less than the wild type. Sequences can lack the tags named with a protein.

For the molecule “Polo-like kinase 1 (endogenous, Xenopus CSF extract) (from UniProt P70032 1-598) (enzyme)”, the binding result in assay [1] is listed as “no binding”; in assay [2], “no binding”; in assay [3], “no binding”; in assay [4], “binds”.

B1: Flag-tagged wildtype Xenopus cyclin B1 (translated from mRNA in CSF extract) (protein, UniProt Q6IR86 1-393)
chain: MALIMTRSMRLNAENVAQGMAGKKAAVSKPVPKPRNALGDIGNQIGKAKVPLKKTTKALRKPTVQKSEKLAVLEENVPKEAQKAAPDSPSPMETSVCVIEEMQPEPAFSSALIPVTDVDAEDSDNPMLCSDYVKDIYCYLRNLEAEQAIGPHYLDGQEINGNMRAILVDWLVQVQLRFKLLQETMSMTVSILDRFLQENPVPKKLLQLAGVSAMFIACKYEEIYCPSIGDFVFVTDNTYTKSQIRNMEMQILRVLNFDIGRPLPLHFLRRASKIGEVDSVHHTLAKYLIELVMTDYDMVHIPPSQLAAAAFCLAMKILNSGEWTPTLEHYMAYKESSLTPVMQHIAKNIVKVNGGHTKFMSVKNKYTSSRQMKISCLPHLKSELVENLAKAAS
Turning to B1, in assay [5], the binding entry is recorded as “binds weakly”.

For the origin of these results see publication PMC11811201.
